Laboratory results taken from PMC10093973, “The RNA-Binding and RNA-Melting Activities of the Multifunctional Protein Nucleobindin 1” (International Journal of Molecular Sciences, 2023).
These are yes or no findings as the source states them, for the method shown.

B1: NUCB1 ΔZ (31-320 aa) (domain or fragment, UniProt Q02818 31-320)
chain: RGAPNKEETPATESPDTGLYYHRYLQEVIDVLETDGHFREKLQAANAEDIKSGKLSRELDFVSHHVRTKLDELKRQEVSRLRMLLKAKMDAEQDPNVQVDHLNLLKQFEHLDPQNQHTFEARDLELLIQTATRDLAQYDAAHHEEFKRYEMLKEHERRRYLESLGEEQRKEAERKLEEQQRRHREHPKVNVPGSQAQLKEVWEELDGLDPNRFNPKTFFILHDINSDGVLDEQELEALFTKELEKVYDPKNEEDDMREMEEERLRMREHVMKNVDTNQDRLVTLEEFLAS
B2: NUCB1 CaBD (228-326 aa) (domain or fragment, UniProt Q02818 228-326)
chain: LKEVWEELDGLDPNRFNPKTFFILHDINSDGVLDEQELEALFTKELEKVYDPKNEEDDMREMEEERLRMREHVMKNVDTNQDRLVTLEEFLASTQRKEF

What was measured:
[1] = target: NUCB1 ΔZ (31-320 aa) (human) (UniProt Q02818); assay: SEC; size-exclusion chromatography of the final preparations on Superdex 200 in 150 mM NaCl, 50 mM Tris-HCl (pH 8.0); oligomeric state of each protein; both purified
[2] = target: NUCB1 CaBD (228-326 aa) (human) (UniProt Q02818); assay: as above

| Binder | binding [1] | binding [2] |
| --- | --- | --- |
| B1 | no binding | – |
| B2 | – | no binding |
